No constants are given. Whether binding was seen depends on the method and setting. Some entries that bind do so weakly or less than the wild type.
Molecular target: GABA(A) receptor-associated protein, GABARAP (human (endogenous in H1792 and UW-lung-16)), O95166
Assay: SDS-PAGE without reducing agent and without heating, immunoblot; lysates of cells treated with AM-101 (3 uM, time course to 72 h; Nix also by dose) or radiation; beta-mercaptoethanol left out of the sample buffer, samples not heated; 4-15% gradient gel; monomer and dimer bands detected with GABARAP or Nix antibody
Conditions: remark: other sources report otherwise

B1: GABA(A) receptor-associated protein, GABARAP, O95166 1-117 (protein)
chain: MKFVYKEEHPFEKRRSEGEKIRKKYPDRVPVIVEKAPKARIGDLDKKKYLVPSDLTVGQFYFLIRKRIHLRAEDALFFFVNNVIPPTSATMGQLYQEHHEEDFFLYIAYSDESVYGL
  binding: binds
